Source: patent US12440528B2, “Methods of treating ovarian cancer with hemp extract” (Ecofibre USA Inc., priority 2021, dated 2025)

System: patient derived organoids (PD3D Cell Culture)
Test: Calculated IC50 in PD3D cell culture of the patient derived organoids
Assay type: cell-based, human

Row | SMILES | Calculated IC50 PD3D Cell Culture
1 | CC(C)NCC(O)COc1cccc2ccccc12 (centres unmarked) [Propranolol] | Not Reached
2 | COc1cc2c(c(OC)c1OC)-c1ccc(OC)c(=O)cc1[C@@H](NC(C)=O)CC2 [Colchicine] | Not Reached
